{"sequences": {"note": "Sequences of proteins named here, by UniProt entry; tags and fusion partners are left off.", "UniProt Q0JBA9, entry or part of it": "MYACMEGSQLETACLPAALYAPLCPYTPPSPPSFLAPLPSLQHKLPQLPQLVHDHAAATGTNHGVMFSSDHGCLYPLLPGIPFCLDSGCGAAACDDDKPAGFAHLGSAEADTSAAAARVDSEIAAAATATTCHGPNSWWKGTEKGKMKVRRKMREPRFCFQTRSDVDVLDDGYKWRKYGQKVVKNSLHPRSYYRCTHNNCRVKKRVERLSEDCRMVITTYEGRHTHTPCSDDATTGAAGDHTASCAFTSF"}, "source": "paper PMC7819943", "about": "“Rice protein-binding microarrays: a tool to detect cis-acting elements near promoter regions in rice”", "note": "This is one part of the list."}
{"target": "OsWRKY34 (Oryza sativa, UniProt Q0JBA9 1-250)", "assay": "protein-binding microarray (RPBM); PBS, 2% BSA, 51.3 ng/ul salmon testes DNA, 50 uM zinc acetate, 200 nM TF, 25 C, 1 h; high values mean tight binding", "details": "protein: recombinant; tags: N-terminal polyhistidine and DsRed monomer fusion (pET32a); label: CyDye5-dUTP incorporated in the synthesized complementary strand; 3' TTTTT single-stranded linker to array surface; dsDNA, one strand shown", "summary_of_the_method": "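The binding signal is fluorescence intensity per feature, in arbitrary units, read on an Axon 4000B scanner. Polyhistidine- and DsRed-tagged transcription factors (N-terminal fusions) from E. coli BL21-CodonPlus were purified on Ni–NTA and applied at 200 nM for 1 h at 25 °C to a double-stranded, BSA-blocked custom Agilent array in buffer with 50 µM zinc acetate.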"}
{"sequence": "TTGCCCCATGCCATTGCTCTAGCTTGCCACCAACTCGAGCCGGAGTCACCTAGTGCAG", "binding signal": "8090 fluorescence intensity (a.u.)"}
{"sequence": "AGACGCAAGACCACACACACACATACACATCCGCTGATAACGGAGTCACCTAGTGCAG", "binding signal": "8180 fluorescence intensity (a.u.)"}
{"sequence": "TTGGTTTTTATTCAATCTCTTCTCTATCTCTATTATTATACGGAGTCACCTAGTGCAG", "binding signal": "10300 fluorescence intensity (a.u.)"}
{"sequence": "TATTTTCGCTTCTACTTATATATGTTGAGTTTGAATTTGTCGGAGTCACCTAGTGCAG", "binding signal": "12300 fluorescence intensity (a.u.)"}
{"sequence": "ACTGTGAGTGGACTTATTCCTTTAATTTACAATCTACATGCGGAGTCACCTAGTGCAG", "binding signal": "8830 fluorescence intensity (a.u.)"}
{"sequence": "AAAGATCTCGCTCGCCGCCGCCTCTGTACTGACTCGACTCCGGAGTCACCTAGTGCAG", "binding signal": "13200 fluorescence intensity (a.u.)"}
{"sequence": "CCGCGTCCAATGTTTGATCGTCTGTCTTATTTGAAAATTTCGGAGTCACCTAGTGCAG", "binding signal": "9110 fluorescence intensity (a.u.)"}
{"sequence": "GCACTACGGCTACCTCACCATTATGCTTCACCATCGACTCCGGAGTCACCTAGTGCAG", "binding signal": "11900 fluorescence intensity (a.u.)"}
{"sequence": "GCCGCATTTAAGCGCTCTCCGGCCTAACTGTCCTATGCGCCGGAGTCACCTAGTGCAG", "binding signal": "8220 fluorescence intensity (a.u.)"}
{"sequence": "CCTGTGATGTGTGTAAAATTTGTGTGCCCGTCAAAGATGACGGAGTCACCTAGTGCAG", "binding signal": "8710 fluorescence intensity (a.u.)"}
{"sequence": "CCACCATGTATTCCTTGGCAGTGCTCCGCGAGTGATCAGCCGGAGTCACCTAGTGCAG", "binding signal": "8790 fluorescence intensity (a.u.)"}
{"sequence": "GTAACTTGTCTATCTGTTTTGCTTTCTCAGCTAAATATCCCGGAGTCACCTAGTGCAG", "binding signal": "10800 fluorescence intensity (a.u.)"}
{"sequence": "GGCCTGTTCAGCTCGGTGGTGGTGGTGTTGTTGGTGGTGCCGGAGTCACCTAGTGCAG", "binding signal": "8770 fluorescence intensity (a.u.)"}
{"sequence": "GTTTGGTTTATTTCCCGAACAAGGGAAACAACGGGGCGGGCGGAGTCACCTAGTGCAG", "binding signal": "10400 fluorescence intensity (a.u.)"}
{"sequence": "TGGGATGGGCTCGTGGTTTAGTTCGTGTCGATTTGACTGTCGGAGTCACCTAGTGCAG", "binding signal": "11900 fluorescence intensity (a.u.)"}
{"sequence": "CACTGCACAGATCATCCATCACCTGCAGCATTTGCCTTCTCGGAGTCACCTAGTGCAG", "binding signal": "9060 fluorescence intensity (a.u.)"}
{"sequence": "AAATCAGCACCCCGCGCGCACTGCTTGCTCGCCATCGCTCCGGAGTCACCTAGTGCAG", "binding signal": "8180 fluorescence intensity (a.u.)"}
{"sequence": "TGGTTATGTTGGTTTGCTTGCTGCTTTATTGGACTGAGATCGGAGTCACCTAGTGCAG", "binding signal": "8090 fluorescence intensity (a.u.)"}
{"sequence": "TCCTGTTGTCGCCGTTGTTGTTATACCCAGTCAAATCCCCCGGAGTCACCTAGTGCAG", "binding signal": "8360 fluorescence intensity (a.u.)"}
{"sequence": "ACTAGTGGGCTGCTTGGGTGGGGAGCCCGGGCCGGCAGATCGGAGTCACCTAGTGCAG", "binding signal": "12000 fluorescence intensity (a.u.)"}
{"sequence": "TGCTAATTTGGATGGTGGTAGTTGAATTCAAGTGGGTTGACGGAGTCACCTAGTGCAG", "binding signal": "9120 fluorescence intensity (a.u.)"}
{"sequence": "CCCGCTCGCACTTTCGCAGAAACACCCCTCACCGACCCCGCGGAGTCACCTAGTGCAG", "binding signal": "8660 fluorescence intensity (a.u.)"}
{"sequence": "ATTCAACAGCTACATTTCTGTAATTTATGTTTAAGTTTTACGGAGTCACCTAGTGCAG", "binding signal": "9960 fluorescence intensity (a.u.)"}
{"sequence": "TTTGGGCCGGGTTTTTGGTTTCTTCCTTTTTTTTTCTGGGCGGAGTCACCTAGTGCAG", "binding signal": "12600 fluorescence intensity (a.u.)"}
{"sequence": "ACTTTTCACCCTGTTACATCAAATGTTTGGACACACGCATCGGAGTCACCTAGTGCAG", "binding signal": "8850 fluorescence intensity (a.u.)"}
{"sequence": "CCAACTCGTCTCTGTGTCTCTCTTTCTGTACTTTTCTTTCCGGAGTCACCTAGTGCAG", "binding signal": "9660 fluorescence intensity (a.u.)"}
{"sequence": "TGTGTGCTGACAGTTCATTTTCCTTGTGTTGTGCTGTTGTCGGAGTCACCTAGTGCAG", "binding signal": "9330 fluorescence intensity (a.u.)"}
{"sequence": "GTTTGATCATCCATCTTATTTAAAAAATTTATGAAAAAATCGGAGTCACCTAGTGCAG", "binding signal": "9060 fluorescence intensity (a.u.)"}
{"sequence": "ATGACTACTACATTGCAGCTGCTCTTCTTACAGACATAGACGGAGTCACCTAGTGCAG", "binding signal": "9780 fluorescence intensity (a.u.)"}
{"sequence": "GAAATGATGTAGCCCATTCTTCTCTCTTTCTTTCTATTTTCGGAGTCACCTAGTGCAG", "binding signal": "13000 fluorescence intensity (a.u.)"}
{"sequence": "CGCGCTCGTTGACTGACCTGACCTGTTCGATGTGCTTGACCGGAGTCACCTAGTGCAG", "binding signal": "10800 fluorescence intensity (a.u.)"}
{"sequence": "AGGGGTAGGATTTACGTGCGTGCGTTTTTTAGGGGTGAGTCGGAGTCACCTAGTGCAG", "binding signal": "10400 fluorescence intensity (a.u.)"}
{"sequence": "GCTCTCTCTCTCTTCTCCTCCTCCTCATCTCGGCAAAACCCGGAGTCACCTAGTGCAG", "binding signal": "8390 fluorescence intensity (a.u.)"}
{"sequence": "TACGGTCCAAACTATCTCCCTACTTTTCTTCTTCCGTAAACGGAGTCACCTAGTGCAG", "binding signal": "13800 fluorescence intensity (a.u.)"}
{"sequence": "AAGTTTCAATGCAGGAGGTCACATGTTTTCTTTATTTGCACGGAGTCACCTAGTGCAG", "binding signal": "10200 fluorescence intensity (a.u.)"}
{"sequence": "TTTCGATCTGTTGTTTTATCTTTCTTTTCTTTTTTCTTTTCGGAGTCACCTAGTGCAG", "binding signal": "13000 fluorescence intensity (a.u.)"}
{"sequence": "GCCGGCGCCGCGCCTCCCCACCGTCCCCGCCGCCGTCCGCCGGAGTCACCTAGTGCAG", "binding signal": "9900 fluorescence intensity (a.u.)"}
{"sequence": "GGACGGCGGCGAGCGGCGAGGAGGAGGCGGGGAGGTGGGACGGAGTCACCTAGTGCAG", "binding signal": "9580 fluorescence intensity (a.u.)"}
{"sequence": "ACCTGCTCAGTATTTTAACCCTATCACTGCCTGCCACGATCGGAGTCACCTAGTGCAG", "binding signal": "10900 fluorescence intensity (a.u.)"}
{"sequence": "CTGCTAAAAGTTTTCGGTTTTTGGGTATACCAACCATTCACGGAGTCACCTAGTGCAG", "binding signal": "8260 fluorescence intensity (a.u.)"}
{"sequence": "TCGCTAGGAGTGGTGGTGGTGGTGGGAGGAGGAGGCGATGCGGAGTCACCTAGTGCAG", "binding signal": "13000 fluorescence intensity (a.u.)"}
{"sequence": "GTGTTTATTACCCGGTAGATCTGTATATTGTAGATGCATGCGGAGTCACCTAGTGCAG", "binding signal": "8260 fluorescence intensity (a.u.)"}
